Test results: patent US20260265404A1

B1: 1B9 antibody (human CD33^PAN antibody clone, hybridoma-derived) (antibody, V domains shown)
VH: QVQLVESGGGVVQPGRSLRLSCAASGFIFSSYDIHWVRQAPGKGLEWVAVIWYDGSHNYYSDSVKGRFTISRDNSKNTLYLQMNSLRAEDTAVYYCARDYSGSYFDYWGQGTLVTVSS
VL: AIQMTQSPSSLSASVGDRVTITCRASQDIRNDLGWYLQRPGKAPKLLIYAASSLQSGVPSRFSGSGSGTDFTLTISSLQPEDFATYYCLQDYSYPRTFGQGTTVEIK
B2: 1A9 antibody (human CD33^PAN antibody clone, hybridoma-derived) (antibody, V domains shown)
VH: EVQLVESGGGLVQPGGSLRLSCAASGFTFSIYDMHWVRQATGKGLEWVSAIGTAGDTYYAGSVKGRFTISRENAKNSLYLQMNSLRAGDTAVYYCAREYSGYYFDYWGQGTLVTVSS
VL: B1 VL with L37Q, R39K, L46I, A50G, L73F, D91E, S93N, R96C, T103K, V104L
B3: 1D2 antibody (human CD33^PAN antibody clone, hybridoma-derived) (antibody, V domains shown)
VH: B1 VH with I28T, H57Q, N58K, S61A, F105Y
VL: B1 VL with D28G, L37Q, R39K, K45E, A51T, T74I, T103K
B4: 1E6 antibody (human CD33^PAN antibody clone, hybridoma-derived) (antibody, V domains shown)
VH: B1 VH with I28T, F105Y
VL: B1 VL with D28G, L37Q, R39K, S53N, T103K
B5: 1H10 antibody (human CD33^PAN antibody clone, hybridoma-derived) (antibody, V domains shown)
VH: QVQLVQSGAEVKKPGASVKVSCKGSGYIFTSYDMHWVRQAPGQGLEWMGIIDPSGGSTSYAQKFQGRVTMTRDTSMSTVYMELSSLRSEDTAVYYCTRDYSWSYFDYWGQGTLVTVSS
VL: B1 VL with D28G, N31I, D32Y, L37Q, R39K, A51T, S93N, R96W, T103K

biological target: human CD33 with deletion of exon 2, lacking the V-set domain (CD33^ΔE2) (human); experiment: flow cytometry on REH subline expressing CD33^ΔE2

binding	Binder
binds	B1
binds	B2
binds	B3
binds	B4
binds	B5

Substitutions are numbered along the chain they refer to. No constants are given. Whether binding was seen depends on the method and setting. Binding calls can cover weak binding; strength is not graded here.
